{"source": "PubChem BioAssay AID504834", "about": "(National Center for Advancing Translational Sciences (NCATS), 2011)", "note": "The campaign covered roughly 320,000 compounds. About 22,000 (6.9%) were called active. The shares of active, inactive and inconclusive entries below differ from those in the screen. Calls come from the whole dose curve; as a rule, active = well fitted inhibition curve with a large enough effect; inconclusive = small, poorly fitted or top-dose-only effect, or another doubt; inactive = no such curve, though single readings can be large or run the other way. Potencies of inconclusive entries are doubtful fits and often do not repeat. % is set by controls: 0 for no effect and ±100 for the full control effect; potency is the fitted concentration of half-maximal effect."}
{"experiment": "Primary qHTS for delayed death inhibitors of the malarial parasite plastid, 96 hour incubation", "details": "P. falciparum luciferase reporter growth; series mostly up to 28.7 µM; activity change, negative = inhibition: at the top concentration", "method_in_brief": "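Compounds incubated with erythrocytes infected by luciferase-expressing P. falciparum (2% hematocrit, 0.05% parasitemia final) for 96 hours, 37 C in 5% CO2. Growth inhibition scored as decreased luciferase luminescence.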"}
{"smiles": "NC(=O)C1CCN(c2nc3c(S(=O)(=O)c4ccccc4)nnn3c3ccccc23)CC1", "activity change, negative = inhibition": "inactive: 33.3%"}
{"smiles": "CC(=O)c1cccc(NC(=O)CC2CCCC2)c1", "activity change, negative = inhibition": "inactive: 19.9%"}
{"smiles": "CCCCNC(=O)/C(=C/c1ccccc1)NC(C)=O", "Potency": "inconclusive: 18.5 µM [inhibitor, single point]"}
{"smiles": "Cc1cc2c3ccccc3ncn2n1", "activity change, negative = inhibition": "inactive: 40.2%"}
{"smiles": "Cc1ccc(CNC(=O)C2CCN(S(=O)(=O)c3c(C)noc3/C=C/c3ccco3)CC2)cc1", "Potency": "active: 6.57 µM"}
{"smiles": "CCOC(=O)C1(CCOc2ccccc2)CCN(Cc2ccncc2)CC1", "Potency": "inconclusive: 18.5 µM [inhibitor, single point]"}
{"smiles": "CCN(CC)S(=O)(=O)c1ccc(N2CCOCC2)c(NC(=O)C(C)(C)C)c1", "Potency": "inconclusive: 2.33 µM [inhibitor, partial curve, poor fit]"}
{"smiles": "CC(=O)c1c(C)n(C)c2ccc(O)cc12", "activity change, negative = inhibition": "inactive: -98.1%"}
{"smiles": "CCOC(=O)C1(CC)CC(CSc2nc3ccccc3[nH]2)OC1=O", "note": "(stereo unspecified)", "Potency": "inconclusive: 18.5 µM [inhibitor, single point]"}
{"smiles": "C=CCOc1ccc(C2NC(=O)c3ccccc3O2)cc1", "note": "(stereo unspecified)", "Potency": "inconclusive: 10.4 µM [inhibitor, single point]"}
{"smiles": "O=C(Nc1ccc2c(c1)OCO2)C1CC(=O)N(c2ccc(F)cc2)C1", "note": "(stereo unspecified)", "Potency": "inconclusive: 18.5 µM [inhibitor, single point]"}
{"smiles": "CN(Cc1ccc(OC(F)F)cc1)C(=O)c1ccc(S(=O)(=O)N(C)c2ccccc2)cc1", "Potency": "inconclusive: 18.5 µM [inhibitor, single point]"}
{"smiles": "Nc1nc(NCc2ccco2)nc(Nc2ccccc2)c1[N+](=O)[O-]", "activity change, negative = inhibition": "inactive: -23.1%"}
{"smiles": "CNS(=O)(=O)c1cccc(C(=O)OCC(=O)N2CCCC2)c1", "activity change, negative = inhibition": "inactive: 36.7%"}
{"smiles": "COc1cc(OC)cc(-c2c(C#Cc3ccsc3)c3cc(-c4ccc5c(c4)OCCO5)ccc3n2C)c1", "Potency": "active: 2.62 µM"}
{"smiles": "O=C(N/N=C/c1ccc(OCc2ccccc2)cc1)c1ccco1", "Potency": "active: 3.7 µM"}
{"smiles": "Cc1ccc(NC(=O)CN2CCN(C)CC2)cc1S(=O)(=O)N1CCOCC1", "Potency": "inconclusive: 10.4 µM [inhibitor, single point]"}
{"smiles": "CCn1c(SC(C)C(=O)NC2CCCc3ccccc32)nnc1-c1cccs1", "note": "(stereo unspecified)", "Potency": "active: 16.5 µM"}
{"smiles": "O=C(NC(=S)NC1CCS(=O)(=O)C1)c1cccc([N+](=O)[O-])c1", "note": "(stereo unspecified)", "Potency": "inconclusive: 4.15 µM [inhibitor, single point]"}
{"smiles": "CN1CCN(c2ccc(S(=O)(=O)N3CCCCC3)cc2NC(=O)Cc2c(F)cccc2Cl)CC1", "Potency": "inconclusive: 1.47 µM [inhibitor, full curve]"}
{"smiles": "Cc1cc(OC(=O)c2ccccc2Cl)cc(=O)n1C", "activity change, negative = inhibition": "inactive: 46.7%"}
